The text below walks through data of patent US6214969A (The Administrators of the Tulane Educational Fund, priority 1993, dated 2001).

This data set is described as follows: general procedure: Boc solid-phase peptide synthesis; benzhydrylamine HCl resin, about 1 meq NH2/g (Advanced ChemTech). Conditions: whole synthesis, TFA salt.

In the case of “[Ac-D-Nal (2)^1,D-Phe(4Cl)^2,D-Pal(3),Arg^5,D-Lys(A2 pr)^6,D-Ala^10 ]LHRH”, where the note is “analytical HPLC”, the “final HPLC purity” value is listed as over 95%. In addition, the isolated mass (scale about 1 mmol) came to 705 mg. Take “[Ac-D-Nal(2)^1,D-Phe(4Cl)^2,D-Pal(3)^3,Arg^5,D-Lys^ 6,D-Ala^10 ]LHRH”: the crude mass (scale 0.5 mmole) was found to be 540 mg.
